Data published in patent publication US11780826B2 (Amgen Inc., priority 2017, dated 2023).
For at least one compound, name, drawing or mass did not settle the structure.

System: Bovine cardiac myofibrils
Test: In vitro model of dose-dependent myofibril ATPase modulation (AC1.4, pyruvate kinase/lactate dehydrogenase-coupled ATPase assay at pCa25)
Assay type: biochemical
Details: concentration at which ATPase activity was 1.4-fold higher than the bottom of the dose curve, mean of a minimum of two independent tests
Protocol: In vitro Model of Dose-Dependent Myofibril ATPase Modulation: Dose responses were measured using a calcium-buffered, pyruvate kinase and lactate dehydrogenase-coupled ATPase assay containing the following reagents (concentrations expressed are final assay concentrations): Potassium PIPES (12 mM), MgCl2 (2 mM), ATP (1 mM), DTT (1 mM), BSA (0.1 mg/mi), NADH (0.5 mM), PEP (1.5 mM), pyruvate kinase (4 U/ml), lactate dehydrogenase (8 U/ml), and antifoam (90 ppm). The pH was adjusted to 6.80 at 22° C. by addition of potassium hydroxide.
Bovine cardiac myofibrils were obtained by homogenizing the appropriate tissue in the presence of detergent. Such treatment removes membranes and majority of soluble cytoplasmic proteins but leaves intact cardiac sarcomeric acto-myosin apparatus. Concentrations of myofibrils were adjusted to achieve the necessary rate of ATP hydrolysis (typically 0.25-1.0 mg/ml).
Assays were performed by first preparing a dilution series of test chemical entity, each with an assay mixture containing potassium Pipes, MgCl2, BSA, DTT, pyruvate kinase, lactate dehydrogenase, myofibrils, antifoam, EGTA, CaCl2, and water. The assay was started by adding an equal volume of solution containing potassium Pipes, MgCl2, BSA, DTT, ATP, NADH, PEP, antifoam, and water. ATP hydrolysis was monitored by absorbance at 340 nm. […]

## CN(C)S(=O)(=O)c1cccc(C(=O)N2CCC[C@@H]2C(=O)NCc2ccc(C(F)(F)F)cc2)c1 [Example 568, 1-((3-(dimethylsulfamoyl)phenyl)carbonyl)-N-(4-(trifluoromethyl)benzyl)-D-prolinamide]
  AC1.4: 3.114 µM
